Laboratory results: PubChem BioAssay AID1259254 (NCATS, 2017)
Aim: 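Finding genes that stop cells copying their DNA twice in one cycle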 (primary screen). System: human HCT116 colorectal cancer cells. Knock-down reagent: single siRNA against human genes. Timing: 3 days. Read-out: 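Nuclei stained with Hoechst and imaged; cell-cycle phase assigned by DNA content; G2 share scaled per plate, non-targeting siRNA 0%, GMNN siRNA 100%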. Reading the numbers: G2 robust z-score and G2 cells, % of GMNN control: higher = more G2 cells, more excess DNA replication; raw share of cells in G2: higher = larger share of cells with G2 DNA content. Hit rule: 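Active siRNAs have a G2 robust z of 5 or more median absolute deviations over the median, which in these data means about 38% or higher of GMNN control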.
In all, the deposit lists about 59,000 reagents; this is a part drawn at random. In the full data, about 1,550 (2.6%) were called active. 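G2 share is only a proxy for re-replication; each gene was hit by three separate siRNAs, and active genes were retested.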 Raw values vary from plate to plate and are shown uncorrected. Reagents against one gene are numbered here. Not given: the amount of reagent.

| gene | siRNA no. | G2 robust z-score | G2 cells, % of GMNN control | raw share of cells in G2 (%) | Call |
| --- | --- | --- | --- | --- | --- |
| DYM | 1 | 0.339 | 5.36 | 5.52 | inactive |
| DYM | 2 | 1.72 | 15.1 | 10.6 | inactive |
| DYM | 3 | 0.841 | 8.88 | 6.13 | inactive |
| CSN1S2AP | 1 | 0.449 | 6.13 | 6.09 | inactive |
| CSN1S2AP | 2 | 0.66 | 7.61 | 6.59 | inactive |
| CSN1S2AP | 3 | 0.14 | 3.95 | 5.78 | inactive |
| PDGFC | 1 | -0.546 | -0.871 | 4 | inactive |
| PDGFC | 2 | 1.65 | 14.6 | 11.4 | inactive |
| PDGFC | 3 | -0.71 | -2.03 | 2.39 | inactive |
| SS18L1 | 1 | -0.0224 | 2.81 | 7.44 | inactive |
| SS18L1 | 2 | -1.05 | -4.42 | 2.72 | inactive |
| SS18L1 | 3 | -0.899 | -3.36 | 2.89 | inactive |
| CCNYL1 | 1 | 4.28 | 33.1 | 14.9 | inactive |
| CCNYL1 | 2 | 1.87 | 16.1 | 7.9 | inactive |
| CCNYL1 | 3 | 2.53 | 20.7 | 10.3 | inactive |
| HEPH | 1 | -0.42 | 0.0103 | 3.2 | inactive |
| HEPH | 2 | 0.761 | 8.32 | 8.13 | inactive |
| HEPH | 3 | -1.23 | -5.67 | 3.06 | inactive |
| INSRR | 1 | 5.45 | 41.3 | 19.3 | active |
| INSRR | 2 | 1.12 | 10.9 | 9.07 | inactive |
| INSRR | 3 | 0.109 | 3.74 | 5.34 | inactive |
| TNKS | 1 | -0.55 | -0.904 | 4.38 | inactive |
| TNKS | 2 | 0.423 | 5.94 | 7.24 | inactive |
| TNKS | 3 | 1.02 | 10.2 | 8.83 | inactive |
| DCSTAMP | 1 | -0.824 | -2.83 | 3.74 | inactive |
| DCSTAMP | 2 | -0.468 | -0.323 | 4.08 | inactive |
| DCSTAMP | 3 | 3.72 | 29.1 | 17.6 | inactive |
| PDIA3 | 1 | 2.36 | 19.6 | 10.6 | inactive |
| PDIA3 | 2 | -0.763 | -2.4 | 4.35 | inactive |
| PDIA3 | 3 | 1.15 | 11 | 9.25 | inactive |
| VEGFA | 1 | -0.681 | -1.82 | 3.58 | inactive |
| VEGFA | 2 | -0.778 | -2.51 | 4.54 | inactive |
| VEGFA | 3 | -0.0194 | 2.83 | 5.41 | inactive |
| DDX31 | 1 | -0.84 | -2.94 | 3.31 | inactive |
| DDX31 | 2 | -0.255 | 1.17 | 4.65 | inactive |
| DDX31 | 3 | -0.757 | -2.36 | 4.67 | inactive |
| FAM180B | 1 | -0.607 | -1.3 | 3.34 | inactive |
| FAM180B | 2 | 1.35 | 12.5 | 8.47 | inactive |
| FAM180B | 3 | -0.707 | -2.01 | 3.96 | inactive |

Continued; the last 8 above are carried over.
| gene | siRNA no. | G2 robust z-score | G2 cells, % of GMNN control | raw share of cells in G2 (%) | Call |
| --- | --- | --- | --- | --- | --- |
| VEGFA | 2 | -0.778 | -2.51 | 4.54 | inactive |
| VEGFA | 3 | -0.0194 | 2.83 | 5.41 | inactive |
| DDX31 | 1 | -0.84 | -2.94 | 3.31 | inactive |
| DDX31 | 2 | -0.255 | 1.17 | 4.65 | inactive |
| DDX31 | 3 | -0.757 | -2.36 | 4.67 | inactive |
| FAM180B | 1 | -0.607 | -1.3 | 3.34 | inactive |
| FAM180B | 2 | 1.35 | 12.5 | 8.47 | inactive |
| FAM180B | 3 | -0.707 | -2.01 | 3.96 | inactive |
| CRNKL1 | 1 | 0.607 | 7.24 | 6.19 | inactive |
| CRNKL1 | 2 | 0.158 | 4.08 | 5.99 | inactive |
| CRNKL1 | 3 | 0.438 | 6.05 | 5.19 | inactive |
| RPL34 | 1 | 0.417 | 5.9 | 7.48 | inactive |
| RPL34 | 2 | 0.619 | 7.32 | 7.11 | inactive |
| RPL34 | 3 | 4.58 | 35.2 | 16.1 | inactive |
| BAP1 | 1 | 1.14 | 11 | 9.4 | inactive |
| BAP1 | 2 | 0.139 | 3.95 | 6.3 | inactive |
| BAP1 | 3 | -0.84 | -2.94 | 2.81 | inactive |
| CALHM5 | 1 | -0.29 | 0.924 | 3.91 | inactive |
| CALHM5 | 2 | 0.137 | 3.93 | 4.48 | inactive |
| CALHM5 | 3 | 4.1 | 31.8 | 13.3 | inactive |
| SCGN | 1 | -0.669 | -1.74 | 2.95 | inactive |
| SCGN | 2 | -0.789 | -2.58 | 4.84 | inactive |
| SCGN | 3 | 2.83 | 22.8 | 12.9 | inactive |
| MYG1 | 1 | 0.121 | 3.82 | 6.24 | inactive |
| MYG1 | 2 | 0.8 | 8.6 | 8.46 | inactive |
| MYG1 | 3 | 3.54 | 27.8 | 10 | inactive |
| NEK5 | 1 | 0.123 | 3.83 | 6.58 | inactive |
| NEK5 | 2 | -0.753 | -2.33 | 4.86 | inactive |
| NEK5 | 3 | -0.695 | -1.92 | 3.07 | inactive |
| TSPAN3 | 1 | -0.288 | 0.94 | 5.76 | inactive |
| TSPAN3 | 2 | -0.269 | 1.07 | 4.39 | inactive |
| TSPAN3 | 3 | -0.294 | 0.896 | 3.73 | inactive |
| OR51S1 | 1 | 0.483 | 6.36 | 6.64 | inactive |
| OR51S1 | 2 | -0.304 | 0.827 | 3.58 | inactive |
| OR51S1 | 3 | -0.876 | -3.2 | 0.885 | inactive |
| SEMA3A | 1 | 0.305 | 5.11 | 7.64 | inactive |
| SEMA3A | 2 | -0.734 | -2.19 | 3.03 | inactive |
| SEMA3A | 3 | -0.804 | -2.69 | 2.43 | inactive |
